This list was built around the results that the source calls inconclusive (neither active nor inactive); the mix of calls is not that of the screen. For some of these results: Where the call is inconclusive, the potency comes from a doubtful curve fit. Activity calls are given as the source filed them. Unless noted, cut-off not given; nearly all actives show AC50 up to about 26 µM.
Tests used:
[1] = growth inhibition of DIPG glioma cells, dose response, cell-based, SU-DIPG-XVII, MIPE5.0, CellTiter-Glo, qHTS (AID 1347060); conditions: SU-DIPG-XVII viability, CellTiter-Glo ATP luminescence;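 on AC50: cells exposed to compound for 48 hours before viability readout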
[2] = growth inhibition of DIPG glioma cells, dose response, cell-based, SU-DIPG-XIII, MIPE4.0, CellTiter-Glo, qHTS (AID 1347061; cut-off not given, nearly all actives have AC50 up to about 37 µM;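 further: cells exposed to compound for 48 hours before readout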); conditions: SU-DIPG-XIII viability, CellTiter-Glo ATP luminescence
[3] = growth inhibition of DIPG glioma cells, dose response, cell-based, JHH-DIPG-1, MIPE4.0, CellTiter-Glo, qHTS (AID 1347062; cut-off not given, nearly all actives have AC50 up to about 27 µM;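 on AC50: cells exposed to compound for two days before readout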); conditions: JHH-DIPG-1 viability, CellTiter-Glo ATP luminescence
[4] = growth inhibition of DIPG glioma cells, dose response, cell-based, SU-DIPG-IV, MIPE4.0, CellTiter-Glo, qHTS (AID 1347063; cut-off not given, nearly all actives have AC50 up to about 30 µM;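 further: compound exposure lasted 48 hours before the viability readout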); conditions: SU-DIPG-IV viability, CellTiter-Glo ATP luminescence
[5] = viability loss in pontine glioma line – cell-based, SU-DIPG-XXV, MIPE5.0, CellTiter-Glo, qHTS, dose response (AID 1347065); conditions: CellTiter-Glo ATP luminescence;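 further: cells exposed to compound for 48 hours before ATP readout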
[6] = JHH-DIPG-1 glioma cell viability, MIPE5.0 library, CellTiter-Glo luminescence, qHTS (AID 1347067); conditions: JHH-DIPG-1 glioma viability, CellTiter-Glo ATP luminescence;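 further: cells exposed to compound for 48 hours before readout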
[7] = SU-DIPG-XXV glioma cell viability, MIPE5.0 library, qHTS (AID 1347068; cut-off not given, nearly all actives have IC50 up to about 30 µM)
[8] = biological target: ATP-dependent translocase ABCB1 (Homo sapiens) (UniProt P08183); assay: MDR1 (ABCB1) efflux transporter inhibition, cell-based (AID 377; in the data active means fluorescence slope change above about 50%; inconclusive means mostly about 31% to 49%); conditions: MDR1-expressing cells, fluorescent substrate accumulation slope; hits give high values; concentration not given here
[9] = inhibitors of polyQ aggregate elongation, biochemical, solid-phase synthetic aggregates, QA3 (AID 1585; call rule not given here); conditions: biotin-polyQ incorporation, at 100 µM, hits give high values
[10] = polyglutamine aggregation reduction, turbidity readout, qthio, single concentration 25 µM screen (AID 1588; call rule not given here); conditions: at 25 µM, hits give low values
[11] = protection of motor neurons from glutamate death, cell-based, TUNEL DNA degradation staining, MNGlu (AID 1594; call rule not given here); conditions: glutamate-induced death, at 1 µM, hits give high values
[12] = enhancers of SMN2 over SMN1 splicing, cell-based, SMN2/SMN1 luciferase reporters (AID 1598; call rule not given here); conditions: SMN2 vs SMN1 luciferase splicing reporter cells; at 10 µM; hits give high values
[13] = SU-DIPG-VI glioma cell viability, MIPE4.0 library, CellTiter-Glo luminescence, qHTS (AID 1347066; cut-off not given, nearly all actives have AC50 up to about 30 µM;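 further: cells exposed to compound for 48 hours before readout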); conditions: CellTiter-Glo ATP luminescence

Protein sequences, listed by entry. Tags and fused reporters are not part of them.
UniProt P08183, whole entry, looked up: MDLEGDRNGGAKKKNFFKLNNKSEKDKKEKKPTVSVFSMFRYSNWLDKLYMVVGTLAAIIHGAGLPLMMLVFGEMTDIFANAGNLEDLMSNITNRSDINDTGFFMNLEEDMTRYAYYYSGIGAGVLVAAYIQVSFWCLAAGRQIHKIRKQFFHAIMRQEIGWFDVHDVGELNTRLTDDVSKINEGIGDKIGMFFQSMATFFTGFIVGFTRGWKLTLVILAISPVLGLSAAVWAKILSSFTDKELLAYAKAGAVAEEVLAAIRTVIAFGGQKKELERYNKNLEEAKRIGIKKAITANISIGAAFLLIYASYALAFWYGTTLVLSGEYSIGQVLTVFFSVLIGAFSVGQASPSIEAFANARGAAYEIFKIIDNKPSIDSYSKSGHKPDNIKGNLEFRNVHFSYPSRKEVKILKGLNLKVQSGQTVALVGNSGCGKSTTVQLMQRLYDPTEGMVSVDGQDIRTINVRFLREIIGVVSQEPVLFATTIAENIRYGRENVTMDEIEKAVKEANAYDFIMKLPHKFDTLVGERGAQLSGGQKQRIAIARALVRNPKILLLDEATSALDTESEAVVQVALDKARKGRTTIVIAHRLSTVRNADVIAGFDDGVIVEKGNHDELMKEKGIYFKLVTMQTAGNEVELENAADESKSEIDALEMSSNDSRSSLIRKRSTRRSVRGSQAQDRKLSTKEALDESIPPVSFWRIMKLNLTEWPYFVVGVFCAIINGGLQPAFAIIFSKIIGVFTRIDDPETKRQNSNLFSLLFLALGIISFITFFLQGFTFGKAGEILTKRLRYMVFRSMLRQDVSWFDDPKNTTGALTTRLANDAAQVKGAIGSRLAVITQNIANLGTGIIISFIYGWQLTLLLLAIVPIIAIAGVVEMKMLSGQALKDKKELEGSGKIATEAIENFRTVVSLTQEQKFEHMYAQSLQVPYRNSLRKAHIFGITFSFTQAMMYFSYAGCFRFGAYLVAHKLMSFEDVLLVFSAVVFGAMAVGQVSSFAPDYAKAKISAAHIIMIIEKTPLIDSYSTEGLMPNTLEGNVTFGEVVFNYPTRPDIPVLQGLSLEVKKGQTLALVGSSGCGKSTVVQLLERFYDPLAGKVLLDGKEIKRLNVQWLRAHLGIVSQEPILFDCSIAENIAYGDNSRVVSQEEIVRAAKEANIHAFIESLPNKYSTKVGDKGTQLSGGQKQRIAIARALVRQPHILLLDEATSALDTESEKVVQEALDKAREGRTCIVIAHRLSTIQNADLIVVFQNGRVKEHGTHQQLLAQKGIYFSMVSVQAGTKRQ

CC(C)(O)CC[C@@H](O)[C@](C)(O)[C@H]1CC[C@@]2(O)C3=CC(=O)[C@@H]4C[C@@H](O)[C@@H](O)C[C@]4(C)[C@H]3CC[C@]12C
inconclusive: AC50 [2] 11.8 µM [cytotoxic]
inactive: outcome [1] | outcome [3] | outcome [4] | outcome [5] | outcome [6] | outcome [7]

C#C[C@]1(O)CC[C@H]2[C@@H]3CCc4cc(OC)ccc4[C@H]3CC[C@@]21C
inconclusive: fluorescence slope change [8] 39.1% | AC50 [1] 0.0934 µM [cytotoxic] | AC50 [2] 16.6 µM [cytotoxic]
inactive: outcome [3] | outcome [4] | outcome [5]

CC(C)OC(=O)C(C)(C)Oc1ccc(C(=O)c2ccc(Cl)cc2)cc1
inconclusive: fluorescence slope change [8] 48.2% | inhibition [9] 19% | aggregation (% of control) [10] 95.5% | protection [11] 8% | SMN2/SMN1 luciferase ratio [12] 0.95 | AC50 [1] 37.2 µM [cytotoxic] | AC50 [2] 20.9 µM [cytotoxic] | AC50 [5] 0.00118 µM [cytotoxic] | AC50 [13] 20.9 µM [cytotoxic]
inactive: outcome [3] | outcome [4]

NC(=O)c1ncn([C@@H]2O[C@H](CO)[C@@H](O)[C@H]2O)n1
inactive: outcome [1] | outcome [2] | outcome [3] | outcome [5] | outcome [6]
inconclusive: inhibition [9] -7.8% | aggregation (% of control) [10] 103% | protection [11] 5% | SMN2/SMN1 luciferase ratio [12] 0.91 | AC50 [4] 11.8 µM [cytotoxic]

CCN(CC)CCOc1ccc(Cc2ccccc2)cc1
inconclusive: AC50 [1] 0.00118 µM | AC50 [2] 20.9 µM [cytotoxic] | AC50 [3] 9.35 µM [cytotoxic] | AC50 [4] 13.2 µM [cytotoxic] | AC50 [5] 16.6 µM [cytotoxic]
inactive: outcome [6]

Quoted from above (two entries):
CC(C)(O)CC[C@@H](O)[C@](C)(O)[C@H]1CC[C@@]2(O)C3=CC(=O)[C@@H]4C[C@@H](O)[C@@H](O)C[C@]4(C)[C@H]3CC[C@]12C
inconclusive: AC50 [2] 11.8 µM [cytotoxic]
inactive: outcome [1] | outcome [3] | outcome [4] | outcome [5] | outcome [6] | outcome [7]

C#C[C@]1(O)CC[C@H]2[C@@H]3CCc4cc(OC)ccc4[C@H]3CC[C@@]21C
inconclusive: fluorescence slope change [8] 39.1% | AC50 [1] 0.0934 µM [cytotoxic] | AC50 [2] 16.6 µM [cytotoxic]
inactive: outcome [3] | outcome [4] | outcome [5]

— PubChem BioAssay
